Molecules are shown by their SMILES.

For the data set, the system named is 12 nucleotide (nt) RNA strand. As to the kind of experiment: Cloaking of 12 nt RNA with PCA 1 and uncloaking with 365 nm light, analysed by denaturing PAGE and MALDI-TOF. As to the method: To test if prototypical PCA reagent 1 is effective in reacting with RNA, it was incubated for 4 h at 100 mM at room temperature with a 12 nucleotide (nt) RNA strand (10 μM) in water. One μL RNA stock solution in water (1 mM or 100 μM) was dissolved in 8 μL RNAse free biological grade water and heated to 95° C. for 2 min and then cooled to room temperature. To this was added 1 μL 1M PCA stock in dry DMSO and the mixture incubated for 4 h at room temperature unless stated otherwise. The solution becomes slightly cloudy initially and then clears after ˜30 min. After reaction, the RNA was precipitated by adding 1 μL of 3 M NaOAc buffer pH=5.2, 1 μL glycogen (10 mg/mL) and 36 μL EtOH and storing at −80° C. for 16 h. The resulting suspension was centrifuged at 14,800 rpm for 60 min and the supernatant was removed. The solids were washed with 10 μL 70% EtOH and centrifuged at 14,800 rpm for 5 min. The supernatant was removed and the RNA was dried in air for 10 min and redissolved in RNAse free biological grade water at the desired concentration. RNA concentration was determined with a Nanodrop One microvolume UV-VIS spectrophotometer. RNA samples were stored at −20° C.
Uncloaking of RNA by photoremoval of the PCA labels was also investigated. […]
In addition, native, cloaked and uncloaked Cy-5 labeled 12-mer RNA (Seq. ID No. 1) were evaluated using 30% denaturing PAGE and MALDI-TOF. […]

With `COc1cc(COC(=O)n2ccnc2Cl)c([N+](=O)[O-])cc1OCCN(C)C` [PCA 1, 4-(2-(dimethylamino)ethoxy)-5-methoxy-2-nitrobenzyl 2-chloro-1H-imidazole-1-carboxylate], the “new mobility-shifted bands of cloaked RNA (denaturing PAGE)” value (100 mM PCA 1, 4 h, room temperature, 10 μM 12 nt RNA in water) is “up to five new mobility-shifted bands”. Besides, for the setting “cloaked 12-mer RNA after 365 nm light”, the “shifted bands after uncloaking (PAGE)” value is listed as “majority of shifted bands disappeared”.
